No constants are given. Whether binding was seen depends on the method and setting. In cells and extracts the contact can be indirect. Some results given as binding are weak or reduced against the parent protein; the word gives no strength.
Assays:
[1] = target: Programmed cell death 1 ligand 1 (PD-L1) (not stated (endogenous in tumor cells, line not named)) (UniProt Q9NZQ7); assay: co-IP; endogenous proteins in tumor cells; precipitated with DNA-PK mAb and, in turn, with the antibody against PD-L1; Western blot
[2] = target: DNA-dependent protein kinase (DNA-PK), PRKDC encoded protein DNA-PKcs (not stated (endogenous in tumor cells, line not named)) (UniProt P78527); assay: as above
[3] = target: DNA-dependent protein kinase (DNA-PK), PRKDC encoded protein DNA-PKcs, in HEK-293 T cells (human) (UniProt P78527); assay: co-IP; 'exogenous' co-immunoprecipitation in HEK-293 T cells transfected with hsa_circ_0136666 or miR-375 mimics; Western blot

By UniProt entry, the sequences of proteins in these tests, tags left out. Residues count along the entry.
UniProt Q9NZQ7, residues 19-290: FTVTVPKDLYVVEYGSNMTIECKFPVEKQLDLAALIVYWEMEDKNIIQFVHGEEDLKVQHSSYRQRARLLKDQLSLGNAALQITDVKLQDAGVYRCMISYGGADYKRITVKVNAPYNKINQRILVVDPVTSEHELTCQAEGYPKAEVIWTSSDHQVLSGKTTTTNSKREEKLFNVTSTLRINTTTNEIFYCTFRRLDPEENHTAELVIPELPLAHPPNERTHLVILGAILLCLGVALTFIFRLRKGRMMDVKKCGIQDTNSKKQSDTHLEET
UniProt P78527: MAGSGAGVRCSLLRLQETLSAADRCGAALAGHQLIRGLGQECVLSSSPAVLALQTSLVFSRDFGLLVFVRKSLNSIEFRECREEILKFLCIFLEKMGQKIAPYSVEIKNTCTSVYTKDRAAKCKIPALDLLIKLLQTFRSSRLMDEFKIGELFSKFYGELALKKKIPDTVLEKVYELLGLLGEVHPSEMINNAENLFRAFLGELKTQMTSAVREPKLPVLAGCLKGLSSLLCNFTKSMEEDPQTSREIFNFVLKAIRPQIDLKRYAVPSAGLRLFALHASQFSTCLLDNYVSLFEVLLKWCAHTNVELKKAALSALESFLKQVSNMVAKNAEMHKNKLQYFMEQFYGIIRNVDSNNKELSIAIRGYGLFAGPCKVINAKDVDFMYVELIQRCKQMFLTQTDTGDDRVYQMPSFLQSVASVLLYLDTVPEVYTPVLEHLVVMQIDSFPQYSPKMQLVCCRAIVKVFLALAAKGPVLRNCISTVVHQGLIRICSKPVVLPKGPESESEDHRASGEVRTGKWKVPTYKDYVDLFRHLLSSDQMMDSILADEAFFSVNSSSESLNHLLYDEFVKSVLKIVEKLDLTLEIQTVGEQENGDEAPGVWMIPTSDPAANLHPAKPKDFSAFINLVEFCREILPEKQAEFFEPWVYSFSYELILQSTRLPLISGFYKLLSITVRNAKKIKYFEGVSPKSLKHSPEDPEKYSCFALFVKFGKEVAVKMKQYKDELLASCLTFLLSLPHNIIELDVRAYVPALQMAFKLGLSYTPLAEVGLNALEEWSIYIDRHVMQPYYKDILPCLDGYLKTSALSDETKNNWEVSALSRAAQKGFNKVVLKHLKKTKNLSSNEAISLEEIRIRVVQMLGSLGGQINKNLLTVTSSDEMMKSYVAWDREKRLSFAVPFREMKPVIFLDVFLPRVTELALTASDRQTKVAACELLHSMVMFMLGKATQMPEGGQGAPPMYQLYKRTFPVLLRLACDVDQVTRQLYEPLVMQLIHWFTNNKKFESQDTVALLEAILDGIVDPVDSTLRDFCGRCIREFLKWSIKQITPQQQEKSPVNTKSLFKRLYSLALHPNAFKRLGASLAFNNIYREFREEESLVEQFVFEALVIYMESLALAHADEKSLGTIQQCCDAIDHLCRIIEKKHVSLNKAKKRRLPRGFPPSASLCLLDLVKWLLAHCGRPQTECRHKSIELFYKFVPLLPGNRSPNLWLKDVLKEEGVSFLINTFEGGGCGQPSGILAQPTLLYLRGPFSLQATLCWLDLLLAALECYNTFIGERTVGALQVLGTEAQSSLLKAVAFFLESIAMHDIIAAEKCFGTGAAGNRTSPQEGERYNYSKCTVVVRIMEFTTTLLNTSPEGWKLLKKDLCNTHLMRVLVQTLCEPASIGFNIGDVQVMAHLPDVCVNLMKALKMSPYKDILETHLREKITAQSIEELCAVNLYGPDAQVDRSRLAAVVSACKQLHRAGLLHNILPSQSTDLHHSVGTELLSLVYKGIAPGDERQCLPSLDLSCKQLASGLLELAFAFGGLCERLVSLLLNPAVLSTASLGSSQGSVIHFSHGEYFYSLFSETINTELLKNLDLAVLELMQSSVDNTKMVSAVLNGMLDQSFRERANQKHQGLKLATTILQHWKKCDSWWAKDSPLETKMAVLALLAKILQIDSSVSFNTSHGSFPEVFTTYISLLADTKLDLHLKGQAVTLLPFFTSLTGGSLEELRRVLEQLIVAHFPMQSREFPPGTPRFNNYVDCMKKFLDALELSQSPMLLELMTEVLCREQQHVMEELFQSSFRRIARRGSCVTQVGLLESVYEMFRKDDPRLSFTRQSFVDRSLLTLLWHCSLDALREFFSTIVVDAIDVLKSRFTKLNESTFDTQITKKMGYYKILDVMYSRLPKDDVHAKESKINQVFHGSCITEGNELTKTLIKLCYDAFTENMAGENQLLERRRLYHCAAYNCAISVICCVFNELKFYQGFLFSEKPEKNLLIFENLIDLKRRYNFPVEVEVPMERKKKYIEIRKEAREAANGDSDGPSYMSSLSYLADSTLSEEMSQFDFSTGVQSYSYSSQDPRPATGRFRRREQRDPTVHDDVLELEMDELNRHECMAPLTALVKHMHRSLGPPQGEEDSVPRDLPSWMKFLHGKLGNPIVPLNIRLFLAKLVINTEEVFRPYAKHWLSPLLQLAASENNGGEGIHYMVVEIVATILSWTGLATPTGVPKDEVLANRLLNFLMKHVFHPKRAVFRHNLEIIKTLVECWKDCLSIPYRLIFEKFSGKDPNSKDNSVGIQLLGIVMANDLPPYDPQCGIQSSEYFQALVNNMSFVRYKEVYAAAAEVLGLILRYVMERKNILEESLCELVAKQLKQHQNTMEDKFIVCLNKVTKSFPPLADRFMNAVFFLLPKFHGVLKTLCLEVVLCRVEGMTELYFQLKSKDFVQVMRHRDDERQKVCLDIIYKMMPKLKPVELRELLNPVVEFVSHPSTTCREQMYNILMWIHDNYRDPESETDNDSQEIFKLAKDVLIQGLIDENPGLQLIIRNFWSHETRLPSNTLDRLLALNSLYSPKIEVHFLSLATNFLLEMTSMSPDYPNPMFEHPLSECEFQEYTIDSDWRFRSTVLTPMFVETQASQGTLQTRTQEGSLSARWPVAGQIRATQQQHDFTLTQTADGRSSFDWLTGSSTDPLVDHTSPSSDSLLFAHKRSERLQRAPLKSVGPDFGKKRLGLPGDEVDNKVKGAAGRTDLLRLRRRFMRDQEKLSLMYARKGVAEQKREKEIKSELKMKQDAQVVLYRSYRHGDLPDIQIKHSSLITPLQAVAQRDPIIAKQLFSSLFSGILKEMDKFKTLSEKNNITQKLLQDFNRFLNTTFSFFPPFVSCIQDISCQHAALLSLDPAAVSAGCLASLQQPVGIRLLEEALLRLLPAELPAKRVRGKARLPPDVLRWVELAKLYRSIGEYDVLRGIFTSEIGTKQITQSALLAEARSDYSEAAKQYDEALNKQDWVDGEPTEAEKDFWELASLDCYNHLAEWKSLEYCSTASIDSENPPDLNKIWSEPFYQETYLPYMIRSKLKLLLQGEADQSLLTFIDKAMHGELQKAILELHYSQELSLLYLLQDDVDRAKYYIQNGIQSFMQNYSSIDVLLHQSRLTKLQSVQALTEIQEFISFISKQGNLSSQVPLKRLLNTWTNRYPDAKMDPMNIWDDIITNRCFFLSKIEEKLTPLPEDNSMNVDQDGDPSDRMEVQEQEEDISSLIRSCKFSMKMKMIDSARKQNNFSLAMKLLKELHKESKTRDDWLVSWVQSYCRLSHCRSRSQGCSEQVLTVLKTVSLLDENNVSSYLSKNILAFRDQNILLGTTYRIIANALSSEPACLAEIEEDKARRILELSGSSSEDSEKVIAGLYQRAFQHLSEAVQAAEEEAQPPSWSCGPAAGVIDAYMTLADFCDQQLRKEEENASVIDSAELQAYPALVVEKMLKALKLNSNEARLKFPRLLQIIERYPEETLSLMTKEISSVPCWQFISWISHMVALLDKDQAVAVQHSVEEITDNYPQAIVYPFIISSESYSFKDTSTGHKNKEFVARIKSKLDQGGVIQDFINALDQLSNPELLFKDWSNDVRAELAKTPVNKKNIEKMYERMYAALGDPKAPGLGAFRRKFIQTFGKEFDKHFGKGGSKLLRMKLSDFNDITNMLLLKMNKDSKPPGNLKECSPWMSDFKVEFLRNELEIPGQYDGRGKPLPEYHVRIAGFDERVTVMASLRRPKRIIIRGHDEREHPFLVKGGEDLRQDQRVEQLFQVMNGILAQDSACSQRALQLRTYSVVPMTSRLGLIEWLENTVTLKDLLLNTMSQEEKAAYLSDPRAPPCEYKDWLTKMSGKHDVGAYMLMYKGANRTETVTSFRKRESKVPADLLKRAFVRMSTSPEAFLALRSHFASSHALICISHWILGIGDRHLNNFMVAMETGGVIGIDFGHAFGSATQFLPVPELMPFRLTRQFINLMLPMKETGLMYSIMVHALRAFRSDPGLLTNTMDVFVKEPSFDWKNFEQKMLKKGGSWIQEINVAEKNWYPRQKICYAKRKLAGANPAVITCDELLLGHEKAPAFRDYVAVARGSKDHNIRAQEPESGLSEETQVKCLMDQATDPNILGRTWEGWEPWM

In the case of “DNA-dependent protein kinase (DNA-PK), PRKDC encoded protein DNA-PKcs (from UniProt P78527 1-4128) (enzyme)”, the binding [1] is reported as “binds”.
In the case of “Programmed cell death 1 ligand 1 (PD-L1) (from UniProt Q9NZQ7 19-290)”, the binding [2] is reported as “binds”.
For “Programmed cell death 1 ligand 1 (PD-L1), in HEK-293 T cells (from UniProt Q9NZQ7 19-290)”, the binding [3] was “binds”.

— article PMC10718020
